Results taken from PMC10916322.
Results are given in words; binding and its absence hold for the method and conditions named. Some entries that bind do so weakly or less than the wild type. Sequences can lack the tags named with a protein.

Target: T1, GST-MIK1^CD (cytoplasmic region of MDIS1-… RECEPTOR LIKE KINASE1, residues 698-983) (UniProt Q9M0G7)
T1 sequence: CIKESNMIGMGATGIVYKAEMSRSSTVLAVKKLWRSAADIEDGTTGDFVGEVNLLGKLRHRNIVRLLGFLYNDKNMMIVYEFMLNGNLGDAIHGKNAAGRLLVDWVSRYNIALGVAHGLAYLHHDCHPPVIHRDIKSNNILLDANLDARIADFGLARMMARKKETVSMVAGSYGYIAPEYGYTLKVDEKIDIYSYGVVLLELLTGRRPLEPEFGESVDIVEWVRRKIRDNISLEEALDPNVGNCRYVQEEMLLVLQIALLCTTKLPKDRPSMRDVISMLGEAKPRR
Assay: pull-down; GST-MIK1 bound to GST agarose, purified His-MDIS1^CD WT added, 6 h at 4 °C in 20 mM Tris-HCl pH 7.5, 150 mM NaCl, 5% glycerol; washes with 0.3% Triton X-100, 0.1% SDS; immunoblot with anti-His and anti-GST; both purified

binding: binds
B1: His-MDIS1^CD wild-type (cytoplasmic region of MALE DISCOVERER1, residues 362-668) (domain or fragment, UniProt C0LGU7 362-668)
chain: RKRAVKSIGPWKTGLSGQLQKAFVTGVPKLNRSELETACEDFSNIIEAFDGYTVYKGTLSSGVEIAVASTAILETREWTRAMEMTYRRRIDTMSRVNHKNFINLIGYCEEDEPFNRMMVFEYAPNGTLFEHLHDKEMEHLDWNARTRIIMGTAYCLQYMHELNPPISHTKLVSSAIYLTDDYAAKVGEVPFSGQTGSKPRKPMSGDLDQSLLPLPPEPETNVYSFGVLMLEIISGKLSDSEEEGSILKWASKYLENDNLRDMIDPTLTTYKEEELEAICDVARHCLKLDESQRPKMKYVVQQLKEVI
